# System: formalin induced flinching in the rat
# Test: Effects of systemic and spinal drugs on formalin evoked flinching behavior (automated formalin test)
# Type: in vivo
# Details: from % MPE dose effect curves; for ED50 Phase II (Mean and 95% confidence intervals): Phase II (10–60 min); for ED50 Phase IIA (Mean and 95% confidence intervals): Phase IIA (10–40 min)
structure (smiles),measurement,setting,value
"CN1CC[C@]23c4c5ccc(O)c4O[C@H]2[C@@H](O)C=C[C@H]3[C@H]1C5.O=S(=O)(O)O [Morphine, morphine sulfate]",ED50 Phase II (Mean and 95% confidence intervals),IP (intraperitoneal),4.7 (7888-.003) mg
same,ED50 Phase IIA (Mean and 95% confidence intervals),IP (intraperitoneal),1.8 (1.1–2.9) mg
same,ED50 Phase II (Mean and 95% confidence intervals),IT (intrathecal),1.6 (0.6–4.7) μg
same,ED50 Phase IIA (Mean and 95% confidence intervals),IT (intrathecal),1.5 (0.6–3.6) μg
